Measurements published in PubChem BioAssay AID504444 (National Center for Advancing Translational Sciences (NCATS), 2011).
The campaign covered roughly 360,000 compounds. About 7,500 (2.1%) were called active. This list was built around the results that the source calls inconclusive (neither active nor inactive); the mix of calls is not that of the screen. The call rests on the fitted dose curve; in most records, active means well fitted inhibition curve with a large enough effect; inconclusive means small, poorly fitted or top-dose-only effect, or effect the other way; inactive means flat fitted curve, though single readings scatter. Potencies of inconclusive entries are doubtful fits and often do not repeat.

Experiment: Nrf2 qHTS screen for inhibitors; further: nearly all actives have a fitted effect of over 60% in size
Conditions: A549 ARE-Fluc reporter, luciferase luminescence, 18-24 h; activity change, negative = inhibition: at 46 µM (top of the series)
Method in brief: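 Cells were seeded and rested 2 h, then exposed to compounds for 18-24 h. CellTiter-Fluor was read first as a viability measure. BugLite was added 15 min before the final luminescent read of ARE-luciferase activity in A549 cells.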
On the % scale 0 is the no-effect control and ±100 the full control effect; potency means the concentration at half of the fitted maximal effect.

| Structure (SMILES) | Potency | activity change, negative = inhibition |
| --- | --- | --- |
| COc1ccc(CNC(=O)Nc2ccccc2)cc1 | inconclusive: 29.1 µM [activator, single point] | – |
| N#CN1CCC(NC(=O)c2ccc(F)cc2)CC1 | – | inactive: 11.4% |
| CCN(CC)C(=O)[C@H]1C[C@H](CC(=O)NCC23CC4CC(CC(C4)C2)C3)C(=O)N2CCc3c([nH]c4ccc(Cl)cc34)[C@]12C | active: 23.1 µM | – |
| Cc1ccc(F)cc1NC(=O)CCSc1nc(-c2ccco2)cc(C(F)(F)F)n1 | – | inactive: -13.2% |
| CC1(C)Cc2c(sc(NC(=O)C(=O)N3CCCC3)c2C(N)=O)CO1 | inconclusive: 29.1 µM [activator, single point] | – |
| Cc1ccc(NC(=O)C(=O)NCC(c2cccnc2)N2CCc3ccccc3C2)cc1 (configuration not stated) | inconclusive: 5.17 µM [falling, full curve] | – |
| CC(C)(C)C(=O)Nc1ccc(C(=O)N/N=C/c2ccccc2OC(=O)c2ccccc2)cc1 | inconclusive: 20.6 µM [falling, single point] | – |
| CCN(c1ccccc1)S(=O)(=O)c1ccc(C(=O)Nc2cccc(NC(C)=O)c2)cc1 | inconclusive: 16.4 µM [falling, partial curve] | – |
| CCc1ccc(-n2nc(C)c3c(C(=O)N4CCN(c5cccc(Cl)c5)CC4)cc(C)nc32)cc1 | inconclusive: 8.2 µM [falling, partial curve] | – |
| Cc1cc(C)c2c3c(sc2n1)C(c1cccc(F)c1)C(C#N)=C(N)O3 (configuration not stated) | inconclusive: 18.4 µM [falling, single point] | – |
| Cc1nn(CC(=O)N2CCN(c3cccc(Cl)c3)CC2)c(=O)c2c1sc1ccccc12 | inconclusive: 32.6 µM [falling, single point] | – |
| CCOC(=O)c1ccc(NC(=O)CCc2c(C)nc3c(c(C)nn3C(C)(C)C)c2C)cc1 | inconclusive: 7.31 µM [activator, partial curve, poor fit] | – |
| CCOC(=O)c1c(C)n(OCc2ccccc2)c2ccc3c(no[n+]3[O-])c12 | inconclusive: 2.31 µM [falling, partial curve, poor fit] | – |
| CCN(CC)Cc1c(O)ccc2c1O/C(=C\C=C\c1ccccc1)C2=O | inconclusive: 36.6 µM [falling, partial curve, poor fit] | – |
| COc1ccc(C2CC(c3ccc(OC)cc3OC(C)=O)=NN2C(=O)c2ccccc2)cc1 (configuration not stated) | inconclusive: 29.1 µM [activator, partial curve, poor fit] | – |
| CC(C)CC(NC(=O)C1CCCCC1)C(=O)N1CCN(c2ccccn2)CC1 (configuration not stated) | inconclusive: 0.58 µM [activator, full curve, poor fit] | – |
| CCC1([N+](=O)[O-])COC(c2ccc(C(C)C)cc2)OC1 (configuration not stated) | inconclusive: 18.4 µM [activator, partial curve] | – |
| NC(=O)Nn1c(CCC(=O)O)ccc1-c1ccc(F)cc1 | inconclusive: 29.1 µM [activator, single point] | – |
| COc1cc(OC)c(NC(=O)NCc2cccn2Cc2ccccc2)cc1Cl | inconclusive: 0.517 µM [falling, full curve, poor fit] | – |
| Cc1ccc(S(=O)(=O)N2c3ccccc3OCC2c2ccccc2)cc1 (configuration not stated) | inconclusive: 29.1 µM [falling, single point] | – |
| N#Cc1sc2nc(-c3ccccc3)cc(C(F)(F)F)c2c1N | – | inactive: 8.18% |

Part of the list above in order of molecular weight, descending.

| Structure (SMILES) | Potency | activity change, negative = inhibition |
| --- | --- | --- |
| CC(C)(C)C(=O)Nc1ccc(C(=O)N/N=C/c2ccccc2OC(=O)c2ccccc2)cc1 | inconclusive: 20.6 µM [falling, single point] | – |
| Cc1ccc(F)cc1NC(=O)CCSc1nc(-c2ccco2)cc(C(F)(F)F)n1 | – | inactive: -13.2% |
| CCOC(=O)c1c(C)n(OCc2ccccc2)c2ccc3c(no[n+]3[O-])c12 | inconclusive: 2.31 µM [falling, partial curve, poor fit] | – |
| CCC1([N+](=O)[O-])COC(c2ccc(C(C)C)cc2)OC1 (configuration not stated) | inconclusive: 18.4 µM [activator, partial curve] | – |

More entries:

| Structure (SMILES) | Potency | activity change, negative = inhibition |
| --- | --- | --- |
| O=C(C1CCN(S(=O)(=O)c2cccc3nsnc23)CC1)N1CC=C(c2ccccc2)CC1 | inconclusive: 29.1 µM [falling, single point] | – |
| Cc1[nH]n2c(=O)cc(-c3ccc([N+](=O)[O-])cc3)nc2c1-c1ccccc1 | inconclusive: 29.1 µM [falling, single point] | – |
| OCc1ccc2c(c1)c(-c1ccc3c(c1)OCCO3)c(-c1ccccc1)n2-c1ccccc1 | – | inactive: -16% |
| Cc1nn(Cc2ccc(Cl)c(Cl)c2)c(C)c1NC(=O)c1cc(-c2ccco2)on1 | – | inactive: -18.8% |
| O=C(N/N=C/c1c[nH]c2ccccc12)c1[nH]c2ccc(Br)cc2c1-c1ccccc1 | inconclusive: 4.11 µM [activator, partial curve, poor fit] | – |
| CCc1ccccc1NC(=O)Cn1c(=O)n(-c2ccc(C)c(C)c2)c(=O)c2oc3ccccc3c21 | inconclusive: 14.6 µM [activator, partial curve, poor fit] | – |
| COc1ccc(CCNc2nc3ccccc3c3nc(-c4cccc(C)c4)nn23)cc1OC | inconclusive: 18.4 µM [activator, partial curve] | – |
| Fc1ccc(CSc2ncnc3c2oc2ccccc23)cc1 | inconclusive: 16.4 µM [falling, single point] | – |
| CCCN(CCC)S(=O)(=O)c1cc(Br)cc2c1N(C(=O)CC)CC2 | inconclusive: 2.06 µM [activator, partial curve, poor fit] | – |
| [O-][n+]1ccccc1/C=C/c1ccccc1 | inconclusive: 23.1 µM [activator, partial curve, poor fit] | – |
| CC(C)(C)C(=O)N1CCN(c2ccc(Cl)cc2[N+](=O)[O-])CC1 | inconclusive: 6.51 µM [activator, single point] | – |
| CCOC(=O)c1c(C)[nH]c(C)c1S(=O)(=O)N1CCC(C(=O)NCc2ccc(N(C)C)cc2)CC1 | inconclusive: 0.517 µM [activator, full curve, poor fit] | – |
| CCc1cc(C(=O)N2CCN(C(=O)c3ccccc3)CC2)sc1C | inconclusive: 6.51 µM [falling, partial curve, poor fit] | – |
| CCCCCn1c(-c2cccc(C)c2)nc2ccccc21 | inconclusive: 18.4 µM [falling, partial curve, poor fit] | – |
| CC1CN(c2nc3ccccc3nc2C(C#N)C(=O)NCc2ccc3c(c2)OCO3)CC(C)O1 (configuration not stated) | inconclusive: 13 µM [falling, partial curve, poor fit] | – |
| CCNc1nc(C#N)nc2c1ncn2-c1cccc(Cl)c1 | inconclusive: 14.6 µM [falling, partial curve] | – |
| CC(=O)Nc1ccc(NC(=O)C/C(C)=N/NC(=O)C(=O)Nc2ccc(C)c(Cl)c2)cc1 | inconclusive: 0.0052 µM [falling, full curve, poor fit] | – |
| Cc1ccn2c(-c3csc(NCc4ccco4)n3)c(C)nc2c1 | active: 23.1 µM | – |
| Cc1cc(C)cc(-n2ccnc(NCc3ccc(F)cc3)c2=O)c1 | inconclusive: 29.1 µM [falling, single point] | – |
| O=C1c2ccccc2-c2c1cccc2C(=O)N1CCCCCC1 | inconclusive: 29.1 µM [activator, single point] | – |
| COc1ccc(N2CCN(C(CNC(=O)C(=O)NCc3ccc4c(c3)OCO4)c3ccco3)CC2)cc1 (configuration not stated) | inconclusive: 8.2 µM [falling, partial curve] | – |

| Structure (SMILES) | Potency | activity change, negative = inhibition |
| --- | --- | --- |
| O=C1COc2cc(S(=O)(=O)CCC(=O)N3CCN(c4ccccc4)CC3)c(Cl)cc2N1 | – | inactive: 15.1% |
| Cc1ccc(-c2csc(NC(=O)c3cc([N+](=O)[O-])ccc3N3CCOCC3)n2)cc1 | – | inactive: 12.9% |
| Cc1ccc(S(=O)(=O)NCCc2nnc3ccc(SCC(=O)Nc4ccc(OC(F)(F)F)cc4)nn23)cc1 | – | inactive: -3.71% |
| CCCc1ccc(-c2ccc(C(=O)Oc3ccc(Br)cc3)cc2)nc1 | inconclusive: 0.058 µM [activator, full curve, poor fit] | – |
| O=C(O)CCC(=O)c1cccc2ccccc12 | inconclusive: 1.84 µM [activator, partial curve, poor fit] | – |
| COc1cc(NC(=O)c2ccc(F)cc2)c(OC)cc1NC(=O)CN1CCOCC1 | inconclusive: 6.51 µM [falling, partial curve, poor fit] | – |
| O=C(Nc1nc2ccccc2[nH]1)c1cccc(Br)c1 | inconclusive: 9.2 µM [activator, partial curve] | – |
| O=C(NC1CCN(Cc2ccccc2)CC1)c1cc(S(=O)(=O)Nc2ccc(F)cc2)ccc1Cl | inconclusive: 18.4 µM [falling, single point] | – |
| O=C(c1cc(-c2ccc(F)cc2)on1)N1CCCCCC1 | inconclusive: 3.26 µM [activator, partial curve] | – |
| CCCCCCCCCc1nc2sc3c(c2c(=O)n1NC(=O)c1ccccc1[N+](=O)[O-])CC(C)(C)OC3 | inconclusive: 29.1 µM [falling, single point] | – |
| Cc1cccc(-c2onc3ccc(C4(C)OCCO4)cc23)c1 | inconclusive: 29.1 µM [falling, single point] | – |
| CSc1ncccc1C(=O)OCc1ccccc1F | inconclusive: 23.1 µM [activator, single point] | – |
| N#Cc1ccc(CSc2ncnc3c2cnn3Cc2ccccc2)cc1 | inconclusive: 18.4 µM [falling, single point] | – |
| COc1ccc(NS(=O)(=O)c2ccc(NC(=S)NC(=O)C(C)C)cc2)cc1 | inconclusive: 11.6 µM [falling, partial curve, poor fit] | – |
| COC(=O)/C=C/C(=O)Nc1cccc(C(F)(F)F)c1 | inconclusive: 5.17 µM [falling, partial curve, poor fit] | – |
| CCS(=O)(=O)c1cccc(C(=O)N2CCN(c3nc4c(C)ccc(Cl)c4s3)CC2)c1 | active: 11.6 µM | – |
| Cc1ccc(NC(=S)Nc2ccccn2)cc1C | inconclusive: 13 µM [activator, partial curve] | – |
| COc1cc(Cl)c(NC(=O)CN(C)S(=O)(=O)c2ccc3c(c2)CCCC(=O)N3)c(OC)c1 | – | inactive: -4.74% |
| Cc1nc(NC(=O)c2cncc(Br)c2)ccc1Br | inconclusive: 8.2 µM [activator, partial curve] | – |
| Clc1ccc(CNc2ccc(CNc3ncn[nH]3)cc2)cc1 | – | inactive: -20.5% |
